Experimental data taken from paper PMC4996533.
These are yes or no findings as the source states them, for the method shown. Binding can be weak; no strength is given. Where a sequence is shown, tags or fusion partners need not be part of it.

Chains of the proteins cited; added tags and fusions are not shown. Lines headed by an entry give the natural chain unless they say otherwise; changes in a name come on top.
UniProt G4N7U4: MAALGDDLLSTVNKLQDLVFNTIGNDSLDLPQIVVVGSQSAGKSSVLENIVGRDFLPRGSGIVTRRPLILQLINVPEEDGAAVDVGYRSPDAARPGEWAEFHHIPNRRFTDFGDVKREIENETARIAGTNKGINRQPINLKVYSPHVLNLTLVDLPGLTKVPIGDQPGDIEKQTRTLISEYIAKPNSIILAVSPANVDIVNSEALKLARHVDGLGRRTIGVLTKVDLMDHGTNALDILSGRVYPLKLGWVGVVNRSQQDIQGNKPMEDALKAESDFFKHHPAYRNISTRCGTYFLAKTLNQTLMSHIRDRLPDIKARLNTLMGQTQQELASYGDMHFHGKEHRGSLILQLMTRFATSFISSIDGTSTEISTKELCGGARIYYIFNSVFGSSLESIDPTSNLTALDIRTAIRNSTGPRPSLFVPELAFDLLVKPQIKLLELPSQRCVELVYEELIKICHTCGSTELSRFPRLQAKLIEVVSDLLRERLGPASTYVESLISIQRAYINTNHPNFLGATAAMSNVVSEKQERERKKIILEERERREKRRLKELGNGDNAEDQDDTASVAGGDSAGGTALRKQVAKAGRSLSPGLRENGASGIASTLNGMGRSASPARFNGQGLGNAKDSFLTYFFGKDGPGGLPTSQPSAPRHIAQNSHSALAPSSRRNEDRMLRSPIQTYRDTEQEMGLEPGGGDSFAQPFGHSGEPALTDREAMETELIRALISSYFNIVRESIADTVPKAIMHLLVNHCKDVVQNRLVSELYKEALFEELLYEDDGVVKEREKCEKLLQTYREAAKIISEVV

Molecular target: GST-Dnm1 (M. oryzae) (UniProt G4N7U4)
Test: pull-down; both purified

B1: His6-Mdv1 (protein, UniProt A4RJV3 1-661)
chain: MASPEDENPFQDDPGQEDEDGSILSPRGLEAFSRKVTTTASHLMGPVVDPSSSGHYQSAMTEVQKHLRRPNLQRSMFSMARTTPSDLVRSKLSTREIQHRALAHVPDDMLANIPEDDNNSYSLFQGFQASFPELTDEGKKHRRRVSRGRKLLDEGPTTPENGTTGLQKLRKERASMSHELEMLGIRKNMASSEIREIDIKIANLHGMRRIILERLAALEQEETLLEHDLMEVEARVEDAQMLADEAESTAQQSSPRDTDDADAEDNDGFMSQSIYEKIPSAASTPSKSRKPRIVRRKSMAVLHEHFEPGTSIRELRAHQDCITAMDFDAPFGTLVSAAMDDSVKVWDLNAGRCIGSLEGHTASVRALQVEDNILATGSRDATVRLWDLSKAHYDPHGSHYNGGDDDDDAMAFENPDDQPVDPPAGSMADCPLFTLSSHMDEVTALHFKGDTLVSGSSDKTIRQWDLVKGRCVQTLDVMWAAAQASVSLGTGDGAWRQTARSQAEDADFVGAVQVFDAALACGTADGMVRLWDLRSGQVHRNLVGHTGPVTALQFDNMHLVTGSHDRSIRIWDLRTGSIFDAFAYDHPVTSMMFDARRIVSAAGEDVVKVYDKVESRQWDCGAGIKAAEEMKNPPAIVERVRIRDGYMVEGRRDGIVGIWTC
binding: binds
